# Laboratory results reported in PubChem BioAssay AID1347423 (Functional Genomics Laboratory (NCATS/FGL), 2020).
# Out of some 52,000 sequences screened, about 210 (0.4%) were called active.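 How the source made its calls: active means gene whose silencing raises cell survival under the drug, median off-target-corrected z-score across its silencing RNAs 2 or more; inactive means the rest.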 The list shows a part of the results.
# Experiment: Resistance to Poly (ADP-Ribose) Polymerase inhibitor: Gene Identification via Genome-wide siRNA Screen
# Conditions: mouse BRCA2 R2336H ES cells, olaparib, CellTiter-Glo viability; active compounds read high
# How it was run: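 Mouse BRCA2 R2336H ES cells were reverse-transfected with siRNA (20 nM final), treated at 48 h with 500 nM olaparib, and read by CellTiter-Glo after 72 h. Scores: MAD-based z per siRNA, median per gene, seed off-target correction.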
row,Sequence,z-score
1,GGAGAGUCUUGGAAAGGAATT against 3110082I17Rik,inactive: 2.11
2,CGACAGAGUUAAAUACUAGTT against D16H22S680E,inactive: -1.23
3,CCAAGGAAGUAGAUAAACUTT against 1700074P13Rik,inactive: -0.972
4,GGCUUUUAUUUUCUGGGAUTT against Barhl1,inactive: 0.947
5,GGCUGAGAAAACCAAAGGGTT against Cfdp1,inactive: -2.2
6,GACCUUCUACAGAUAUUACTT against Dbr1,inactive: -0.766
7,GGGCCAAUUCUGAAACUUGTT against Il1f5,inactive: -0.45
8,GGUCUACUUCUUUUUUACGTT against Sema4d,inactive: 1.91
9,GGAGGAAAUGAUCACAGCUTT against Ccl20,inactive: -0.557
10,CCGUUACAAUCAGUUAUUATT against A430106J12Rik,inactive: 0.397
11,GGUACCAGGUAUCUUCAUUTT against Pard6g,inactive: -0.405
12,CGGUAGGUUAAAACAGAUGTT against Rnf152,inactive: 0.695
13,CGAGCACACUUUUGAAGAATT against 6530402A20,inactive: 1.82
14,GGGAACAAAAUAGAAACCATT against Lgi2,inactive: 0.141
15,GCAGAAAAACUAAUGUACATT against Arhgap5,inactive: -0.393
16,GGCUGAGAAAGAAAUUAGGTT against Birc1c,inactive: -0.629
17,GCUGGGUCCACAUGAAUCATT against Sucnr1,inactive: 0.73
18,CCCUCUGUAUUGCGUACCUTT against Dusp14,inactive: 2.34
19,GGAGGUGCUUUAUGUCGAUTT against Utx,inactive: -1.84
20,GGAAAGCUUAGGAAUUACUTT against D8Ertd531e,inactive: -1.49
21,GGCCAUUCUUUGUCACCCATT against 4632413K17Rik,inactive: 0.212
22,GGGACAAAUAAUGAUGUGUTT against Dmbt1,inactive: 0.26
23,CCAAAAGAGUUUUACAGGGTT against Lhx9,inactive: 0.513
24,GGACUUUGAUGUUGAAUGUTT against Rapgef1,inactive: -0.498
25,GCAGGAGAACAAAUCUAAUTT against 6530401L14Rik,inactive: 0.966
26,CCUCCUGAUCAGAAAAGAUTT against Oplah,inactive: -1.53

# Reformatted: results already given
row | Sequence | z-score
7 | GGGCCAAUUCUGAAACUUGTT against Il1f5 | inactive: -0.45
9 | GGAGGAAAUGAUCACAGCUTT against Ccl20 | inactive: -0.557
16 | GGCUGAGAAAGAAAUUAGGTT against Birc1c | inactive: -0.629
23 | CCAAAAGAGUUUUACAGGGTT against Lhx9 | inactive: 0.513

# Continued.

row,Sequence,z-score
1,GCGAUUGAAGUCUCAGGGATT against BC002230,inactive: -1.32
2,GGAGAAACGAAAAGACUCUTT against Brpf1,inactive: 0.262
3,GGAACCUAGGGUUUUCAGCTT against AU019823,inactive: -0.141
4,GCCUUACUGGGUUACUUGUTT against Cdkn2d,inactive: 1.37
5,CCCGUCAAAUAUGAAUACCTT against Klk6,inactive: -0.16
6,CUGUCUUAUGGAGUUGUGATT against Olfr270,inactive: 0.47
7,GGAAAAAUGACUUUUUGUGTT against 6030490I01Rik,inactive: 0.57
8,GGUGAAGAUCUGAUAAGAATT against Epb4.1,inactive: 0.214
9,GGCCUAAGGCUGUGAAUGUTT against AI325464,inactive: 0.022
10,CCUGGACAAGCAAGAUCUCTT against V2r4,inactive: 0.547
11,GGCUCAACUGUGUUAAACATT against Tnfrsf4,inactive: 0.801
12,GCACAAACACCACUUUUCATT against Asb12,inactive: -0.327
13,GGUGACCUUUACCCUCACATT against Mocs1,inactive: -2.81
14,GGCUGUGGAAAGAUGGACUTT against Ugt2b36,inactive: -1.3
15,GGAAUUUCUACUACAUCACTT against Hs6st3,inactive: 1.87
16,GGACCACCACCGUCUAUUUTT against Adora3,inactive: -0.884
17,GGAACUGGAGAAGAUGGAGTT against Uncx4.1,inactive: -0.372
18,GGACUUAUUCGAUAUAGUATT against Nt5c1b,inactive: 0.34
19,GGACUUCCUGAAAGGCGAATT against H2-Q5,inactive: -0.196
20,CGGAUGAUUGUCACCCUGUTT against Mesp1,inactive: 0.552
21,GGACUUAAUAGUCUCUGGGTT against Gemin5,inactive: -1.44
22,GCAAGUCGUGAAACUAUAATT against Gas41,inactive: 0.0888
23,GCACUGAGCAAGAAUCCUGTT against Bcap37,inactive: -2.52
24,GCAUACAGAUUUACACCUGTT against BC049711,inactive: 0.355
25,GGCUACCAAUGAGACCAAUTT against Snap91,inactive: 0.519
26,CGCGUCAUUAUGAAAUGUUTT against 2610024A01Rik,inactive: 0.527

row,Sequence,z-score
1,GGAAGGAAGAAAAAAUAGUTT against Acat1,inactive: -0.146
2,CCUAACAUAGUAUAGCCUUTT against AI449175,inactive: 0.361
3,GCGGGACUGACCUCUUAAUTT against Guk1,inactive: -0.227
4,GGCGGCUGAAAGUUUUGCATT against Pklr,inactive: 1.4
5,GGAGUAUCGUAAUGCGGACTT against C4,inactive: 0.421
6,GCACAAGUACUUCGAGCGCTT against Insm1,inactive: -0.726
7,GGCUAUUACUUUUAAGAACTT against Capn1,inactive: -0.538
8,GCUAAAGCCGUACUCUGAGTT against Mark1,inactive: -0.776
9,GUUUGGCUUAGCUGCUUUCTT against Olfr494,inactive: 1.98
10,CCACUGGUCCAUCCAAAUCTT against Cyp21a1,inactive: 0.00949
11,GCUCCUACAGAGAAUAAGATT against 1810057B09Rik,inactive: 1.78
12,GCGAACAUCACGUCCGAUGTT against Minpp1,inactive: 0.287
13,GGACAAAUUGAGAAAGACATT against C130026L21Rik,inactive: -2.63
14,GUUACUACAACAGCUACUATT against Krtap16-4,inactive: -0.26
15,GGAGCUUCGGGAGAUGAUUTT against Fdxr,inactive: -2.18
16,GGUGUCCUCAAAGACUUUCTT against Pgc,inactive: -0.652
17,CGAGCCUGACUUCAAUCCUTT against Bsf3,inactive: 0.374
18,GGGCAAAUGAUAUAAGGAUTT against 2410011G03Rik,inactive: -2.2
19,GGUUCAAGGACACUUUCACTT against 0610012G03Rik,inactive: 0.261
20,GGUAUCUAAGUGCUGCACUTT against Baiap2,inactive: 1.34
21,GGCAAAAUCUCAUCAGUCCTT against BC026978,inactive: 1.52
22,GCUUGUUGCAUGCUUAUCUTT against Tiaf2,inactive: -0.201
23,GCCAUAUCCUUCAAGAGACTT against Cstb,inactive: 1.62
24,GGAAAUCUGAAGAAUCAAGTT against 2700019D07Rik,inactive: 0.228
25,GGACCUAUGCAGCACUAAATT against Ppp1r11,inactive: 1.06
26,CGGACUCCUGACAUUAUAATT against Cd33,inactive: 0.735

row,Sequence,z-score
1,GGAAAACUUCACUUUCUUCTT against D12Ertd551e,inactive: 0.14
2,GGCAACAGUGAAAGAUGAATT against C730036D15Rik,inactive: -1.05
3,CAGCAAAAACGACCCACCATT against Eef1a1,inactive: -0.206
4,GGAGGAAAAAGAGAAAAAUTT against Slc16a2,inactive: 2.94
5,GGUUUCAAGAAAGAUAUGATT against C230078M14,inactive: 0.104
6,CCAAGGCCGUGUCAUUCAUTT against Adssl1,inactive: 0.152
7,GCGUGCAGGGUUUUAGCUATT against 1190006E07Rik,inactive: -1.25
8,CGAAUACUACGCCAAGAUUTT against Abca2,inactive: 0.605
9,GCUCCAAGUGUUAUUAGUCTT against Rgl2,inactive: -0.186
10,CCUUUAGAAGUAAACCUCGTT against Usp16,inactive: -0.208
11,GCGAGAGUUUUUCUUCAACTT against Hoxc11,inactive: 0.608
12,CCUAUCUCCCUGUUCGAUATT against Rab36,inactive: 0.905
13,GGUUUUCAGAUCUAGGAUUTT against Casp6,inactive: 2.55
14,GGUGAACCAAACAACAAACTT against Sele,inactive: 0.424
15,AGUAUACGAUGACUAUUUCTT against Zfp51,inactive: 0.0774
16,GGUUAUCAAACAGGUGUUGTT against Aldh3b1,inactive: 0.482
17,GGUUCUGUUGUGUGACUAUTT against Mme,inactive: -0.309
18,GGCCUGUGACAUUCAAUGCTT against 4432405B04Rik,inactive: -0.31
19,GCCAAGACCAUUCAGCCUUTT against 1110003A17Rik,inactive: 2.59
20,GGCUGAGAAUCUGGUUGAGTT against Casp12,inactive: -0.011
21,GGGUAAAGUUGUCAGUGGUTT against Cd4,inactive: -0.42
22,GGAUUUCAUCUGGUACCUGTT against C130022P09Rik,inactive: -0.733
23,GGACCUAGAGCGGAGUCUATT against Golga1,inactive: -1.34
24,GGACAUAUUCCUGAAUGGCTT against Bcdo2,inactive: -0.0575
25,GGAGAAUCCUGAAACAGGGTT against Kif3c,inactive: 0.453
26,GCAGCUUAUCACAAUGCUGTT against Asb3,inactive: 2.12

# A different layout for part of the listing above.
row | Sequence | z-score
19 | GCCAAGACCAUUCAGCCUUTT against 1110003A17Rik | inactive: 2.59
20 | GGCUGAGAAUCUGGUUGAGTT against Casp12 | inactive: -0.011
